Data source: PubChem BioAssay AID1259308 (NCATS, 2017)

- Test: 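Genes whose loss raises luciferase production in HEK293 cells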 (primary screen)
- Cells: human HEK293 embryonic kidney cells stably expressing firefly luciferase (HEK-CMV-Luc2-Hygro)
- Knock-down reagent: single siRNA against human genes, 0.8 pmol siRNA per well
- Duration: 72 h
- Measurement: 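Luciferase light (ONE-Glo) measured on one replicate plate set and viability (CellTiter-Glo) on the other, scaled to a negative control siRNA, with robust z-scores and luciferase per cell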
- Direction: total luciferase, z-score and total luciferase, % of control: higher = more reporter protein produced
- Rule for the call: 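An siRNA counts as active if its total luciferase robust z-score exceeds 3; genes with two or more such siRNAs out of three were retested with fresh siRNAs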
- Calls: active = raised luciferase; inactive = no rise
Shown is a random part of about 59,000 deposited reagents. About 1,510 of all reagents (2.6%) were called active. 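Calls use total luciferase alone and ignore viability, so some active siRNAs may act by altering cell number.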 Reagents against one gene are numbered here. Further read-outs or replicates are left out here.

target gene,siRNA no.,"total luciferase, z-score","total luciferase, % of control",Outcome
RCL1,1,-0.674,68.5,inactive
RCL1,2,-1.52,51.7,inactive
RCL1,3,-0.813,65.7,inactive
GAD2,1,1.62,114,inactive
GAD2,2,-1.23,57.4,inactive
GAD2,3,1.07,103,inactive
UTS2B,1,-0.0526,80.8,inactive
UTS2B,2,-0.256,76.8,inactive
UTS2B,3,0.0911,83.7,inactive
GATAD2A,1,-2.72,27.7,inactive
GATAD2A,2,0.912,100,inactive
GATAD2A,3,-1.11,59.8,inactive
SESN3,1,1.44,111,inactive
SESN3,2,-1.73,47.4,inactive
SESN3,3,1.53,112,inactive
DSTNP4,1,0.636,94.5,inactive
DSTNP4,2,1.24,107,inactive
DSTNP4,3,-0.473,72.5,inactive
SH3BGRL2,1,-1.03,61.4,inactive
SH3BGRL2,2,-0.223,77.4,inactive
SH3BGRL2,3,-0.0597,80.7,inactive
PLEK,1,-0.458,72.8,inactive
PLEK,2,3.88,159,active
PLEK,3,-0.519,71.6,inactive
OLFML2A,1,-0.307,75.8,inactive
OLFML2A,2,-2.08,40.5,inactive
OLFML2A,3,1.22,106,inactive
CKS1B,1,3.27,147,active
CKS1B,2,-0.14,79.1,inactive
CKS1B,3,0.0894,83.7,inactive
VWA5A,1,-1.11,59.7,inactive
VWA5A,2,-1.46,52.8,inactive
VWA5A,3,-0.304,75.8,inactive
RASA2,1,0.599,93.8,inactive
RASA2,2,1.12,104,inactive
RASA2,3,-0.946,63.1,inactive
CDKN1C,1,-0.441,73.1,inactive
CDKN1C,2,0.574,93.3,inactive
CDKN1C,3,-0.196,78,inactive

7 neighbouring records already listed:
target gene,siRNA no.,"total luciferase, z-score","total luciferase, % of control",Outcome
DSTNP4,1,0.636,94.5,inactive
DSTNP4,2,1.24,107,inactive
DSTNP4,3,-0.473,72.5,inactive
SH3BGRL2,1,-1.03,61.4,inactive
SH3BGRL2,2,-0.223,77.4,inactive
SH3BGRL2,3,-0.0597,80.7,inactive
PLEK,1,-0.458,72.8,inactive

The list goes on:
target gene,siRNA no.,"total luciferase, z-score","total luciferase, % of control",Outcome
PPP3CA-DT,1,4.67,175,active
PPP3CA-DT,2,0.000237,81.9,inactive
PPP3CA-DT,3,-0.259,76.7,inactive
BACE1,1,-0.971,62.6,inactive
BACE1,2,-0.305,75.8,inactive
BACE1,3,-2.11,40,inactive
SCARF1,1,0.247,86.8,inactive
SCARF1,2,2.74,136,inactive
SCARF1,3,-1.25,57.1,inactive
TFR2,1,-1.05,61,inactive
TFR2,2,0.302,87.9,inactive
TFR2,3,-0.692,68.1,inactive
FUCA1,1,-1.63,49.4,inactive
FUCA1,2,-0.831,65.4,inactive
FUCA1,3,-1.68,48.5,inactive
ANKRD20A12P,1,2.92,140,inactive
ANKRD20A12P,2,2.11,124,inactive
ANKRD20A12P,3,-0.515,71.6,inactive
RSRC2,1,0.29,87.6,inactive
RSRC2,2,-0.104,79.8,inactive
RSRC2,3,1.56,113,inactive
ISM2,1,0.544,92.7,inactive
ISM2,2,0.591,93.6,inactive
ISM2,3,-0.494,72.1,inactive
LYNX1,1,0.358,89,inactive
LYNX1,2,0.666,95.1,inactive
LYNX1,3,0.28,87.5,inactive
ACADVL,1,-0.609,69.8,inactive
ACADVL,2,1.5,112,inactive
ACADVL,3,8.84,258,active
BTBD9,1,-0.15,78.9,inactive
BTBD9,2,0.627,94.4,inactive
BTBD9,3,-0.641,69.1,inactive
FGGY,1,0.514,92.1,inactive
FGGY,2,1.47,111,inactive
FGGY,3,-0.736,67.3,inactive
